Measured values reported in paper PMC8570464.

By UniProt entry, the sequences of proteins in these tests, tags left out. Where a name states a change or a piece, a line headed by the entry shows the natural chain unless it says otherwise. Chains listed by the source or under a name are the forms on record and can include a tag or linker.
UniProt Q8N122: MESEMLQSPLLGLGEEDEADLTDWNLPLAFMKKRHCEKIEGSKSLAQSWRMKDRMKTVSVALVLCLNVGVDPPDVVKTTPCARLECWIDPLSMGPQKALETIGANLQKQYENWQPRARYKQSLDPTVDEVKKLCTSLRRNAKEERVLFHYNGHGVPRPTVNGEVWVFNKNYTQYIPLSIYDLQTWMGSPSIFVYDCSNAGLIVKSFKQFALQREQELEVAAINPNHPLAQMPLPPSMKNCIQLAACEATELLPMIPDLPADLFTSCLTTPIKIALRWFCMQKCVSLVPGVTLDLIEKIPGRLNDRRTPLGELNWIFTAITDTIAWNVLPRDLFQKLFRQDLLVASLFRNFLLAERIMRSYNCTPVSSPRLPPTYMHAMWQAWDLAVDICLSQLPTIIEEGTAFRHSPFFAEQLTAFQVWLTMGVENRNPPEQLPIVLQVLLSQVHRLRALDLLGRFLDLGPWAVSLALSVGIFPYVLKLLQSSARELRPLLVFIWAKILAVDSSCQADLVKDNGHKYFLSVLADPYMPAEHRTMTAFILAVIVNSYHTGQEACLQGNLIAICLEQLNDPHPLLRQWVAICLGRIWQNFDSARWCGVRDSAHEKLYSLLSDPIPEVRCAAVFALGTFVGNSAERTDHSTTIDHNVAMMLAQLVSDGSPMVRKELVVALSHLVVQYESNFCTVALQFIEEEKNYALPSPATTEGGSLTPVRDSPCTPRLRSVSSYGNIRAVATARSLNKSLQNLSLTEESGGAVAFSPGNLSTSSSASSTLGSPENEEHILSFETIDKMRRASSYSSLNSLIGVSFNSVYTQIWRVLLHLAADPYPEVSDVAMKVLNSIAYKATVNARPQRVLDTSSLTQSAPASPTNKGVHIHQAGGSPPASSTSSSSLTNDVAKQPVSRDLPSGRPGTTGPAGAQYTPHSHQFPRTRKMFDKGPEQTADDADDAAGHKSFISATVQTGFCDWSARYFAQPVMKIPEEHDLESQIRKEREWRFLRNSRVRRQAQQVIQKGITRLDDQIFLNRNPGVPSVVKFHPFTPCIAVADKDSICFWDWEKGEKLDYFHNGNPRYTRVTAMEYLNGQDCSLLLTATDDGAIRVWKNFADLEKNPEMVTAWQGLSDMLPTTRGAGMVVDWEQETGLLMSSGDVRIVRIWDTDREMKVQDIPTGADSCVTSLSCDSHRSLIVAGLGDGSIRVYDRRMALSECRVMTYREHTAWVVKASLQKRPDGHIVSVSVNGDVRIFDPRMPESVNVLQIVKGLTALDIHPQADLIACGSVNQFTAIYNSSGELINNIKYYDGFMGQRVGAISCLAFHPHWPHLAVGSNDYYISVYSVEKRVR
UniProt P13861: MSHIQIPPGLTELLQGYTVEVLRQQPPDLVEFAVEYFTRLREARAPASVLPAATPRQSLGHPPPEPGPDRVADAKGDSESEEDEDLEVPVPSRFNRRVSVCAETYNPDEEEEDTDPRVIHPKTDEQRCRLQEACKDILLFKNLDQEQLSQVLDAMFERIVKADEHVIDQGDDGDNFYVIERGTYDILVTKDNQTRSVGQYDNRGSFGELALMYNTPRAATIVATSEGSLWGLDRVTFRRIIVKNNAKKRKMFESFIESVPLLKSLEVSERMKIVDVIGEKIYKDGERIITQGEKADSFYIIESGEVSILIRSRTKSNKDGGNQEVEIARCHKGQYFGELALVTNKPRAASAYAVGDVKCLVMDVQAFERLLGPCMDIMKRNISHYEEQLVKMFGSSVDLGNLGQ
AKAP13 (Q12802-2, form named): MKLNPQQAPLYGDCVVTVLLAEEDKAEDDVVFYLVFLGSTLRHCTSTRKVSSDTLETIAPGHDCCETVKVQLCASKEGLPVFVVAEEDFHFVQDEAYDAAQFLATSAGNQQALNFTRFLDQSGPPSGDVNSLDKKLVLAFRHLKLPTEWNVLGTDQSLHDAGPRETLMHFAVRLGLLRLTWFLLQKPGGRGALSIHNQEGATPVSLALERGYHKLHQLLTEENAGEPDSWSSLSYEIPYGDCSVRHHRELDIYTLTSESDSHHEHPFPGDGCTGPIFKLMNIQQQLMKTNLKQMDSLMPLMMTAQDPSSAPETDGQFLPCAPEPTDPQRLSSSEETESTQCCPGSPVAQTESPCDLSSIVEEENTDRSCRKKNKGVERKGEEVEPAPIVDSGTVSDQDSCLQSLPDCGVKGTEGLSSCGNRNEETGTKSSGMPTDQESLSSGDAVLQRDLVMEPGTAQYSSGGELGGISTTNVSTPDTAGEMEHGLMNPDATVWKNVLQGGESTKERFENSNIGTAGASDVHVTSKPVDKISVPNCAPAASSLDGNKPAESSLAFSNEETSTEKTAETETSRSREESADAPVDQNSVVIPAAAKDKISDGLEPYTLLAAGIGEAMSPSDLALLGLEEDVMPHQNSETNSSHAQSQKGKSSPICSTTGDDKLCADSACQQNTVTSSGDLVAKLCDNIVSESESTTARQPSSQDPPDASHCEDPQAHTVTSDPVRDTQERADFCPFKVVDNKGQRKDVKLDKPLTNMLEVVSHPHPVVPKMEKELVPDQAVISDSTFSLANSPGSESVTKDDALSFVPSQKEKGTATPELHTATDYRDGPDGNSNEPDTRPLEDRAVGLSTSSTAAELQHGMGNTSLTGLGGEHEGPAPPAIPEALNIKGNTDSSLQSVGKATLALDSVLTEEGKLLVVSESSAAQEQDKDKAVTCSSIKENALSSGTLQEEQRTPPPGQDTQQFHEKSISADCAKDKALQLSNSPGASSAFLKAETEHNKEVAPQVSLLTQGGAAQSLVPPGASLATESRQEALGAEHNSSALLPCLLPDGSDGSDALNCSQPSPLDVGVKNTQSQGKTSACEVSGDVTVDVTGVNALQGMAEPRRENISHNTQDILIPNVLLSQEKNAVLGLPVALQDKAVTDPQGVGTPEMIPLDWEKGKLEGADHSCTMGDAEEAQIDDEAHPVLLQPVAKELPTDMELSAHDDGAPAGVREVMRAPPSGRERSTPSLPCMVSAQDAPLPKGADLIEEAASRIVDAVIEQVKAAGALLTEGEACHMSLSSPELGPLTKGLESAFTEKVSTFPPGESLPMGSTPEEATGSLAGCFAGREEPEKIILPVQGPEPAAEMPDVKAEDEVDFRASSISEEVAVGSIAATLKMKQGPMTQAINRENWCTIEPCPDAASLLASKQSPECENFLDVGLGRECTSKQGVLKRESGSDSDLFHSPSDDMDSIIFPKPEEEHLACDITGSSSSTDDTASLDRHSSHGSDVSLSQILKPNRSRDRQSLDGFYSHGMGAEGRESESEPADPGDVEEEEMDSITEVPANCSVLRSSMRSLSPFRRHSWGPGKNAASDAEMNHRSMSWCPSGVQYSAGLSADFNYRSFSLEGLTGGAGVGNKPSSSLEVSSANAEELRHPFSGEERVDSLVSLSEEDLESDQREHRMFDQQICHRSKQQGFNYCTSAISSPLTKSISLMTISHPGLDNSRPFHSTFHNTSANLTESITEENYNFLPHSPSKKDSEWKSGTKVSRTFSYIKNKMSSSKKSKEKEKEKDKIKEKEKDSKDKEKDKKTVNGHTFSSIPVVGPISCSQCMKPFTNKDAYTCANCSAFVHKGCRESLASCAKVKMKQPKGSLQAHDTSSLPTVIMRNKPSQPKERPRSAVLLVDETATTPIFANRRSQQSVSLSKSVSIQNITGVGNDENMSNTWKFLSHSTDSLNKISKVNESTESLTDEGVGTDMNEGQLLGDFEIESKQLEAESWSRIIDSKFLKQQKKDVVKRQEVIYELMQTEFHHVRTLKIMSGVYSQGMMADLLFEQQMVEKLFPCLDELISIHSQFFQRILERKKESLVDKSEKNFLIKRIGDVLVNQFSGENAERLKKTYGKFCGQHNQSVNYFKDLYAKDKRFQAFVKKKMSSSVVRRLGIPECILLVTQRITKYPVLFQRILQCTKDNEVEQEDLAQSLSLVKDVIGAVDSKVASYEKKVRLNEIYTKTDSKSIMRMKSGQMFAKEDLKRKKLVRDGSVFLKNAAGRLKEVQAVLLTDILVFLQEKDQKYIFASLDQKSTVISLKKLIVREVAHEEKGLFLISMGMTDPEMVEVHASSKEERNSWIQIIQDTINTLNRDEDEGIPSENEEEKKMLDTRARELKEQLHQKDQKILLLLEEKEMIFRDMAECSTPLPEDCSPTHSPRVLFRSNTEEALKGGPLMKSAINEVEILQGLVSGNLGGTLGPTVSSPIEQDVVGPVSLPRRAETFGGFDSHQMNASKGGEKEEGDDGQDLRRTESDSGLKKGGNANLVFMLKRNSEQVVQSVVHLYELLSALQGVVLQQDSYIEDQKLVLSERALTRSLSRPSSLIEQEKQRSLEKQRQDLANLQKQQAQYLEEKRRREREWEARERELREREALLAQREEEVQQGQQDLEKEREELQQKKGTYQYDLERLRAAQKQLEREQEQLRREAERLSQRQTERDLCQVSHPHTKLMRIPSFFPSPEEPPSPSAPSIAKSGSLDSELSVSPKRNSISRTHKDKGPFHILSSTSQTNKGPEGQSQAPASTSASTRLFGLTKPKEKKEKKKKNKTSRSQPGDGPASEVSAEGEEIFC

Target: Flag-tagged Raptor (UniProt Q8N122)
Experiment: affinity purification with mass spectrometry; mTORC1 complex immunopurified via Flag-tagged Raptor; anti-Flag immunoprecipitants analysed by mass spectrometry

binding | Substance
binds | PKA regulatory subunit IIα (from UniProt P13861 1-404)
binds | AKAP13 (from UniProt Q12802-2 1-2817)

No constants are given. Whether binding was seen depends on the method and setting. Binding seen in cells or lysates may run through a third protein. Here binding means that the protein was enriched with, or labelled near, the bait; the list need not be complete.
